Test results from ChEMBL document CHEMBL5260817, “Polyamine-based analogs and conjugates as antikinetoplastid agents” (Eur J Med Chem, 2017).

Sequences of proteins named here, by UniProt entry; tags and fusion partners are left off. A change or cut given only in a name is not applied to a line headed by its entry.
UniProt P28593: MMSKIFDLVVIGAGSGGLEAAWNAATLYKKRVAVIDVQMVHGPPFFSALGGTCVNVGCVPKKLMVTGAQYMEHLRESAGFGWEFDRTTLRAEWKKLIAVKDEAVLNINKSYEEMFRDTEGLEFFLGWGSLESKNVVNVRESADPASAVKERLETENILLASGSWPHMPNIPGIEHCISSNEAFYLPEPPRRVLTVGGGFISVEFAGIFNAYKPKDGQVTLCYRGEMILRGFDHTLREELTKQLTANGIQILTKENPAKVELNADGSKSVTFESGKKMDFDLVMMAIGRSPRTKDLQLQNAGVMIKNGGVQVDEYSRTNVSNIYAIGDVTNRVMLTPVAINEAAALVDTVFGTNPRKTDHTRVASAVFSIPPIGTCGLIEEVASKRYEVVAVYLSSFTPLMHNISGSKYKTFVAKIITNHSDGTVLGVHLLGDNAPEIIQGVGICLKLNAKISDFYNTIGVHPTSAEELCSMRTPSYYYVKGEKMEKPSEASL

Molecular target: Trypanothione reductase (Trypanosoma cruzi, UniProt P28593)

- IC50: 3.8 µM
SMILES: CN(C)CCCN1c2ccccc2CCc2ccc(Cl)cc21 [CLOMIPRAMINE]
